Measured values from patent US10779540B2, “Benzamide compounds and their use as herbicides” (BASF SE, priority 2015, dated 2020).
Some results were stated once for a whole list of compounds, not compound by compound. At least one structure is not confirmed: it was looked up by name or label, or the drawing left a doubt.

Experiments:
Format in all cases: in vivo
Conditions in all cases: application rate 250 g/ha, scale 0 to 100
[1] = test system: ECHCG (Echinocloa crus-galli); test: Greenhouse pre-emergence herbicidal test against ECHCG
[2] = test system: AMARE (Amaranthus retroflexus); test: Greenhouse pre-emergence herbicidal test against AMARE
[3] = test system: CHEAL (Chenopodium album); test: Greenhouse pre-emergence herbicidal test against CHEAL

Measured: control

COCCN(C)C(=O)Nc1c(Br)cc(F)c(C(=O)Nc2nnnn2C)c1C [Table I no. 34]
> 85%: all assays above

Cc1c(NC(N)=O)c(Br)cc(F)c1C(=O)Nc1nnnn1C [Table I no. 33]
> 85%: all assays above

CCNC(=O)Nc1c(Cl)cc(F)c(C(=O)Nc2nnnn2CCOC)c1C [Table I no. 20]
> 85%: all assays above

COCCNC(=O)Nc1c(Br)cc(F)c(C(=O)Nc2nnnn2C)c1C [Table I no. 28]
> 85%: all assays above

Cc1c(NC(=O)N(C)C)c(Cl)cc(F)c1C(=O)Nc1nnnn1C [Table I no. 13]
> 85%: all assays above

CCN(C)C(=O)Nc1c(Br)cc(F)c(C(=O)Nc2nnnn2CC)c1C [Table I no. 21]
> 85%: all assays above

Cc1c(NC(=O)N2CCCCC2)c(Br)cc(F)c1C(=O)Nc1nnnn1C [Table I no. 31]
> 85%: all assays above

Cc1c(NC(=O)N(C)C(C)C)c(Cl)cc(F)c1C(=O)Nc1nnnn1C [Table I no. 14]
> 85%: all assays above

CCN(C)C(=O)Nc1c(Cl)cc(F)c(C(=O)Nc2nnnn2CCOC)c1C [Table I no. 15]
> 85%: all assays above

CCN(C)C(=O)Nc1c(Cl)cc(F)c(C(=O)Nc2nnnn2CC)c1C [Table I no. 18]
> 85%: all assays above

CCN(C)C(=O)Nc1c(Br)cc(F)c(C(=O)Nc2nnnn2CCOC)c1C [Table I no. 22]
> 85%: all assays above

CCN(CC)C(=O)Nc1c(Br)cc(F)c(C(=O)Nc2nnnn2C)c1C [Table I no. 5, 4-bromo-3-(diethylcarbamoylamino)-6-fluoro-2-methyl-N-(1-methyltetrazol-5-yl)benzamide]
> 85%: all assays above

CCNC(=O)Nc1c(Cl)cc(F)c(C(=O)Nc2nnnn2CC)c1C [Table I no. 19]
> 85%: all assays above

Cc1c(NC(=O)N(C)C(C)C)c(Br)cc(F)c1C(=O)Nc1nnnn1C [Table I no. 11]
> 85%: all assays above

CCN(C)C(=O)Nc1c(Br)cc(F)c(C(=O)Nc2nnnn2C)c1C [Table I no. 7, 4-bromo-3-[[ethyl(methyl)carbamoyl]amino]-6-fluoro-2-methyl-N-(1-methyltetrazol-5-yl)benzamide]
> 85%: all assays above

CN(C)C(=O)Nc1c(Cl)cc(F)c(C(=O)Nc2nnnn2C)c1Cl [Table I no. 1]
> 85%: all assays above

CCN(C)C(=O)Nc1c(Cl)cc(F)c(C(=O)Nc2nnnn2C)c1C [Table I no. 16]
> 85%: all assays above

CCN(CC)C(=O)Nc1c(Cl)cc(F)c(C(=O)Nc2nnnn2C)c1C [Table I no. 26]
> 85%: all assays above

Cc1c(NC(=O)NC(C)C)c(Cl)cc(F)c1C(=O)Nc1nnnn1C [Table I no. 24]
> 85%: all assays above

CCNC(=O)Nc1c(Cl)cc(F)c(C(=O)Nc2nnnn2C)c1C [Table I no. 17]
> 85%: all assays above

Cc1c(NC(=O)N(C)C)c(Br)cc(F)c1C(=O)Nc1nnnn1C [Table I no. 8]
> 85%: all assays above
